Results are given in words; binding and its absence hold for the method and conditions named. Some results given as binding are weak or reduced against the parent protein; the word gives no strength. For part of these data: Sequences can lack the tags named with a protein. Values belong to the molecule of their own block, whether it stands above or below them.
Tests used:
[1] = molecular target: T1, BMP9 growth factor domain (BMP9-GFD) (UniProt Q9UK05); assay: native gel or EMSA; purified proteins premixed, incubated at room temperature for 10 min, 10% native PAGE; bands excised and rerun on 12% nonreducing SDS/PAGE; both purified
T1 sequence: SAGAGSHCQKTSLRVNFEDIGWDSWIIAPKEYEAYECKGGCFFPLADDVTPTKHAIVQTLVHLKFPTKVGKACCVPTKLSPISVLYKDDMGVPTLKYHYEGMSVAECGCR

The chains behind the UniProt entries cited, without tags or fusion partners. Residues count along the entry.
UniProt P37023, residues 22-118: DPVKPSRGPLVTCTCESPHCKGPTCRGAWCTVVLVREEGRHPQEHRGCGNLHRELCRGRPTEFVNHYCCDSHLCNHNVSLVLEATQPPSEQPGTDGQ

[2] = molecular target: T1, BMP9 growth factor domain (BMP9-GFD); assay: SEC; analytical gel filtration, S75 10/30, 50 mM Tris.HCl, pH 7.4, 150 mM NaCl; sENG (mixture of dimer and monomer), ALK1 ECD and pro-BMP9 alone or in combination; fractions TCA-precipitated and run on 12% nonreducing SDS/PAGE; both purified
[3] = molecular target: T2, dimeric recombinant soluble endoglin, sENG(D) (human) (UniProt P17813); assay: as above
T2 sequence: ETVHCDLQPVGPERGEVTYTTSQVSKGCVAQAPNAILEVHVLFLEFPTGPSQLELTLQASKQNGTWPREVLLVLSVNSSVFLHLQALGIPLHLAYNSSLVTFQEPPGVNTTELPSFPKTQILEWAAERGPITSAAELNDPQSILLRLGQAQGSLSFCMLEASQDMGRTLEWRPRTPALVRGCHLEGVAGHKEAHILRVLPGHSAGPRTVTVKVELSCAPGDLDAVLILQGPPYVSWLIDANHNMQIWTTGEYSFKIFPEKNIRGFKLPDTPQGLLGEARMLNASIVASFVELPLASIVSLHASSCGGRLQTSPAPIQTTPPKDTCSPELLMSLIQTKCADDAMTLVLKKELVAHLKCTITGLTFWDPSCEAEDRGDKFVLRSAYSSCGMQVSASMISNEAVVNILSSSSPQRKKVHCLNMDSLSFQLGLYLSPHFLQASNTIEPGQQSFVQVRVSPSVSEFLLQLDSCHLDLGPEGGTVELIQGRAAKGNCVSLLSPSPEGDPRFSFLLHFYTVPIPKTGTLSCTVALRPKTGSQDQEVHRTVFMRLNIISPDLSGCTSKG

[4] = molecular target: T3, monomeric recombinant soluble endoglin, sENG(M) (human) (UniProt P17813); assay: as above
T3 sequence: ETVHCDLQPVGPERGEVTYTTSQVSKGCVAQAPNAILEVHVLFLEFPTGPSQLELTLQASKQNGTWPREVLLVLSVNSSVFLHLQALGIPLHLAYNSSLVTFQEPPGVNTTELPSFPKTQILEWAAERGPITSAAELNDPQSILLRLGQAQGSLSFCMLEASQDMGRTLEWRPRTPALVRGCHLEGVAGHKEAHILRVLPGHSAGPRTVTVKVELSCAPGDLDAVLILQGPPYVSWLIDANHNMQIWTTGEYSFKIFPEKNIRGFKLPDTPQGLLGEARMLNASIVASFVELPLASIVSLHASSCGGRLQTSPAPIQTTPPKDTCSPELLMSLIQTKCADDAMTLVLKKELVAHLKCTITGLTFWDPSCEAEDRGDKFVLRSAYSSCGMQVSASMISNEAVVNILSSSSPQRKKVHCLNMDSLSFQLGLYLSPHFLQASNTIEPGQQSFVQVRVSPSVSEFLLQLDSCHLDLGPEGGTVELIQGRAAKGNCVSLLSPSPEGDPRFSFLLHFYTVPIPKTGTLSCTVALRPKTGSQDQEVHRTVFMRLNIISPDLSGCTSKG

[5] = molecular target: T4, recombinant soluble endoglin (sENG), full-length ECD of human ENG residues 1 to 586 with C-terminal His-tag, mixture of dimer and monomer or form not told (human) (UniProt P17813); assay: native gel or EMSA; purified proteins premixed, incubated at room temperature for 10 min, 10% native PAGE; bands excised and rerun on 12% nonreducing SDS/PAGE; both purified
T4 sequence: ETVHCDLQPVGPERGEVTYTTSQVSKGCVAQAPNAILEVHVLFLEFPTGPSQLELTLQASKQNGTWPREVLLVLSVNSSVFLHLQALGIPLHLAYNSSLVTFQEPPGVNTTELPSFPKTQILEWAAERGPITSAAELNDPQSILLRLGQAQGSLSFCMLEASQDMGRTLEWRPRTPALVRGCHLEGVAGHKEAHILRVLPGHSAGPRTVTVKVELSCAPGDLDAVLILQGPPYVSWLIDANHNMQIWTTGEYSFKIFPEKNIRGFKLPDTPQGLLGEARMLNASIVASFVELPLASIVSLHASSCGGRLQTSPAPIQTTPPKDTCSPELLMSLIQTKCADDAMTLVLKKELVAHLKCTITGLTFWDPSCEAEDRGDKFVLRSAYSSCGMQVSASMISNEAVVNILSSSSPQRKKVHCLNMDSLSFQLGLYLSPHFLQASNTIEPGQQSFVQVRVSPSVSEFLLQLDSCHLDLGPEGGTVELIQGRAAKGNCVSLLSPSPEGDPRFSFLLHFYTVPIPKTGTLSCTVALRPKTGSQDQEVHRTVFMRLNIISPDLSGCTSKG

[6] = molecular target: T4, recombinant soluble endoglin (sENG), full-length ECD of human ENG residues 1 to 586 with C-terminal His-tag, mixture of dimer and monomer or form not told (human); assay: pull-down; pro-BMP9 applied to a nickel-chelating (Ni-NTA) column preloaded with His-tagged sENG (D+M); samples on 12% SDS/PAGE, Coomassie Blue; both purified
[7] = molecular target: T2, dimeric recombinant soluble endoglin, sENG(D) (human); assay: native gel or EMSA; purified proteins premixed, incubated at room temperature for 10 min, 10% native PAGE; bands excised and rerun on 12% nonreducing SDS/PAGE; both purified
[8] = molecular target: T3, monomeric recombinant soluble endoglin, sENG(M) (human); assay: as above
[9] = molecular target: T3, monomeric recombinant soluble endoglin, sENG(M) (human); assay: SEC; sENG(M) (1 mg) mixed with pro-BMP9 (10 ug GFD) at room temperature for 30 min; S200 10/30, 20 mM Tris-Cl, pH 7.4, 150 mM NaCl; fractions on nonreducing SDS/PAGE, immunoblotted; both purified
[10] = molecular target: T4, recombinant soluble endoglin (sENG), full-length ECD of human ENG residues 1 to 586 with C-terminal His-tag, mixture of dimer and monomer or form not told (human); assay: SEC; analytical gel filtration, S75 10/30, 50 mM Tris.HCl, pH 7.4, 150 mM NaCl; sENG (mixture of dimer and monomer), ALK1 ECD and pro-BMP9 alone or in combination; fractions TCA-precipitated and run on 12% nonreducing SDS/PAGE; both purified
[11] = molecular target: T5, sENG from human plasma (PE patients and normotensive pregnant women) (human (endogenous in plasma)) (UniProt P17813); assay: ELISA; ELISA specific for the sENG(M):BMP9 complex on plasma samples from 18 PE patients and 11 normotensive controls; antibody pairs in SI Appendix
T5 sequence: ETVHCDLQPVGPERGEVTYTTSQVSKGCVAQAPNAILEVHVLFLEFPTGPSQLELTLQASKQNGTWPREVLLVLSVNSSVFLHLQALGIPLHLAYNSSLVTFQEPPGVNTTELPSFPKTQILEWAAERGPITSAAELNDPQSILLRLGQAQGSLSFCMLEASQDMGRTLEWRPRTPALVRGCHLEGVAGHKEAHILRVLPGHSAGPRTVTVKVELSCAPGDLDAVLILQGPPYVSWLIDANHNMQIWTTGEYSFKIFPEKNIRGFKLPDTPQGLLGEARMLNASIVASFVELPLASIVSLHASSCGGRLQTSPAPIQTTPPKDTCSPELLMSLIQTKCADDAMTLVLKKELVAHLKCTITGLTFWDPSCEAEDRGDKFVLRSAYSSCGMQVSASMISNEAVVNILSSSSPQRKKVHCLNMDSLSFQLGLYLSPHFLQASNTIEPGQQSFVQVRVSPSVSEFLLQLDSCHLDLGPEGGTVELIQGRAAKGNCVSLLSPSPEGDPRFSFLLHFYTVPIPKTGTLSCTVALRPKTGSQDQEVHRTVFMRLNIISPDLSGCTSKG

B1: BMPRII ECD (domain or fragment, UniProt Q13873 27-150)
chain: SQNQERLCAFKDPYQQDLGIGESRISHENGTILCSKGSTCYGLWEKSKGDINLVKQGCWSHIGDPQECHYEECVVTTTPPSIQNGTYRFCCCSTDLCNVNFTENFPPPDTTPLSPPHSFNRDET
binding [5]: no binding

B2: BMP9 growth factor domain (BMP9-GFD) (ligand, UniProt Q9UK05 320-429)
chain: SAGAGSHCQKTSLRVNFEDIGWDSWIIAPKEYEAYECKGGCFFPLADDVTPTKHAIVQTLVHLKFPTKVGKACCVPTKLSPISVLYKDDMGVPTLKYHYEGMSVAECGCR
binding [6]: binds | binding [7]: binds | binding [8]: binds | binding [5]: binds | binding [9]: binds | binding [10]: binds

More lines, now with the values ahead:

binding [1]: binds | binding [2]: binds | binding [3]: no binding | binding [4]: no binding
Molecule: ALK1 ECD (from UniProt P37023 22-118) (domain or fragment)

binding [11]: binds
B3: circulating BMP9 in human plasma (protein, UniProt Q9UK05 320-429)
chain: SAGAGSHCQKTSLRVNFEDIGWDSWIIAPKEYEAYECKGGCFFPLADDVTPTKHAIVQTLVHLKFPTKVGKACCVPTKLSPISVLYKDDMGVPTLKYHYEGMSVAECGCR

Reference: paper PMC6731690
